# In the supplement of paper PMC8728848:
# The list shows a part of the results.
# B1: EULS2 M3 (Oryza sativa) (protein)
# chain: MVYCRANPNYAMTARNGAVVLAPANPKDEYQHWIKDMRWSTSIKDEEGYPAFALVNKATGQAIKHSLGQSHPVRLVPYNPEVMDESVLWTESRDVGNGFRCIRMVNNIYLNFDAFHGDKYHGGVRDGTDIVLWKLCEGDSLRWKIQPYYILEQKLISEEDLNSAVDHHHHHH
# How the values were obtained:
# Assay in all cases: glycan array binding signal (z-score within array); higher = stronger binding
# Conditions in all cases: glycan notation: IUPAC condensed, linker removed
# [1] = biological target: Fuc(a1-2)Gal(b1-4)GlcNAc(b1-3)Gal(b1-4)GlcNAc(b1-3)Gal(b1-4)GlcNAc
# How it was run: (§1)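 Negative Z-scores can be read as non-binding. The Z-score is calculated within each array and then averaged across arrays of one protein sequence at different concentrations or buffers and across linkers. Arrays, 3228 in all, were curated from the Consortium for Functional Glycomics database and kept only where the protein sequence was available.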
# [2] = biological target: Fuc(a1-2)Gal(b1-4)GlcNAc(b1-3)GalNAc
# How it was run: as §1
# [3] = biological target: Fuc(a1-2)Gal(b1-4)GlcNAc(b1-3)[Fuc(a1-2)Gal(b1-4)GlcNAc(b1-6)]GalNAc
# How it was run: as §1
# [4] = biological target: Fuc(a1-2)Gal(b1-4)GlcNAc(b1-3)[Fuc(a1-3)[Gal(b1-4)]GlcNAc(b1-6)]Gal(b1-4)Glc
# How it was run: as §1
# [5] = biological target: Fuc(a1-2)Gal(b1-4)GlcNAc(b1-6)GalNAc
# How it was run: as §1
# [6] = biological target: Fuc(a1-2)Gal(b1-4)GlcNAc6S
# How it was run: as §1
# [7] = biological target: Fuc(a1-2)Gal(b1-4)[Fuc(a1-3)]GlcNAc
# How it was run: as §1
# [8] = biological target: Fuc(a1-2)Gal(b1-4)[Fuc(a1-3)]GlcNAc(b1-2)Man(a1-3)[Fuc(a1-2)Gal(b1-4)[Fuc(a1-3)]GlcNAc(b1-2)Man(a1-6)]Man(b1-4)GlcNAc(b1-4)[Fuc(a1-6)]GlcNAc
# How it was run: as §1
# [9] = biological target: Fuc(a1-2)Gal(b1-4)[Fuc(a1-3)]GlcNAc(b1-2)[Fuc(a1-2)Gal(b1-4)[Fuc(a1-3)]GlcNAc(b1-4)]Man(a1-3)[Fuc(a1-2)Gal(b1-4)[Fuc(a1-3)]GlcNAc(b1-2)Man(a1-6)]Man(b1-4)GlcNAc(b1-4)GlcNAc
# How it was run: as §1
# [10] = biological target: Fuc(a1-2)Gal(b1-4)[Fuc(a1-3)]GlcNAc(b1-3)Gal(b1-4)[Fuc(a1-3)]GlcNAc
# How it was run: as §1
# [11] = biological target: Fuc(a1-2)Gal(b1-4)[Fuc(a1-3)]GlcNAc(b1-3)Gal(b1-4)[Fuc(a1-3)]GlcNAc(b1-3)Gal(b1-4)[Fuc(a1-3)]GlcNAc
# How it was run: as §1
# [12] = biological target: Fuc(a1-2)Gal(b1-4)[Fuc(a1-3)]GlcNAc(b1-3)GalNAc
# How it was run: as §1
# [13] = biological target: Fuc(a1-2)Gal(b1-4)[Fuc(a1-3)]GlcNAc(b1-3)[Neu5Ac(a2-6)Gal(b1-4)GlcNAc(b1-6)]Gal(b1-4)Glc
# How it was run: as §1
# [14] = biological target: Fuc(a1-2)Gal3S(b1-4)GlcNAc
# How it was run: as §1
# [15] = biological target: Fuc(a1-2)Gal6S(b1-3)GlcNAc
# How it was run: as §1
# [16] = biological target: Fuc(a1-2)Gal6S(b1-3)GlcNAc6S
# How it was run: as §1
# [17] = biological target: Fuc(a1-2)Gal6S(b1-4)Glc
# How it was run: as §1
# [18] = biological target: Fuc(a1-2)Gal6S(b1-4)Glc6S
# How it was run: as §1
# [19] = biological target: Fuc(a1-2)[Gal(a1-3)]Gal
# How it was run: as §1
# [20] = biological target: Fuc(a1-2)[Gal(a1-3)]Gal(b1-3)GalNAc
# How it was run: as §1
# [21] = biological target: Fuc(a1-2)[Gal(a1-3)]Gal(b1-3)GalNAc(b1-3)Gal(a1-4)Gal(b1-4)Glc
# How it was run: as §1
# [22] = biological target: Fuc(a1-2)[Gal(a1-3)]Gal(b1-3)GlcNAc
# How it was run: as §1
# [23] = biological target: Fuc(a1-2)[Gal(a1-3)]Gal(b1-3)GlcNAc(b1-2)Man(a1-3)[Fuc(a1-2)[Gal(a1-3)]Gal(b1-3)GlcNAc(b1-2)Man(a1-6)]Man(b1-4)GlcNAc(b1-4)GlcNAc
# How it was run: as §1
# [24] = biological target: Fuc(a1-2)[Gal(a1-3)]Gal(b1-3)GlcNAc(b1-2)Man(a1-3)[Fuc(a1-2)[Gal(a1-3)]Gal(b1-3)GlcNAc(b1-2)Man(a1-6)]Man(b1-4)GlcNAc(b1-4)[Fuc(a1-6)]GlcNAc
# How it was run: as §1
# [25] = biological target: Fuc(a1-2)[Gal(a1-3)]Gal(b1-3)GlcNAc(b1-3)GalNAc
# How it was run: as §1
# [26] = biological target: Fuc(a1-2)[Gal(a1-3)]Gal(b1-3)GlcNAc(b1-6)GalNAc
# How it was run: as §1
# [27] = biological target: Fuc(a1-2)[Gal(a1-3)]Gal(b1-4)Glc
# How it was run: as §1
# [28] = biological target: Fuc(a1-2)[Gal(a1-3)]Gal(b1-4)GlcNAc
# How it was run: as §1
# [29] = biological target: Fuc(a1-2)[Gal(a1-3)]Gal(b1-4)GlcNAc(b1-2)Man
# How it was run: as §1
# [30] = biological target: Fuc(a1-2)[Gal(a1-3)]Gal(b1-4)GlcNAc(b1-2)Man(a1-3)[Fuc(a1-2)[Gal(a1-3)]Gal(b1-4)GlcNAc(b1-2)Man(a1-6)]Man(b1-4)GlcNAc(b1-4)GlcNAc
# How it was run: as §1
binder,measurement,setting,value
B1,glycan array binding signal (z-score),[1],-0.805
same,glycan array binding signal (z-score),[2],-0.15
same,glycan array binding signal (z-score),[3],1.38
same,glycan array binding signal (z-score),[4],-0.313
same,glycan array binding signal (z-score),[5],0.029
same,glycan array binding signal (z-score),[6],-0.605
same,glycan array binding signal (z-score),[7],0.165
same,glycan array binding signal (z-score),[8],0.196
same,glycan array binding signal (z-score),[9],-0.291
same,glycan array binding signal (z-score),[10],-0.306
same,glycan array binding signal (z-score),[11],0.687
same,glycan array binding signal (z-score),[12],1.06
same,glycan array binding signal (z-score),[13],-0.197
same,glycan array binding signal (z-score),[14],-0.367
same,glycan array binding signal (z-score),[15],-0.205
same,glycan array binding signal (z-score),[16],0.045
same,glycan array binding signal (z-score),[17],-0.48
same,glycan array binding signal (z-score),[18],-0.13
same,glycan array binding signal (z-score),[19],-0.564
same,glycan array binding signal (z-score),[20],0.04
same,glycan array binding signal (z-score),[21],-0.648
same,glycan array binding signal (z-score),[22],1.44
same,glycan array binding signal (z-score),[23],-0.156
same,glycan array binding signal (z-score),[24],-0.085
same,glycan array binding signal (z-score),[25],-0.065
same,glycan array binding signal (z-score),[26],-0.12
same,glycan array binding signal (z-score),[27],-0.301
same,glycan array binding signal (z-score),[28],-0.139
same,glycan array binding signal (z-score),[29],0.032
same,glycan array binding signal (z-score),[30],1.35

# Given tab-delimited: part of the list above.
binder	measurement	setting	value
B1	glycan array binding signal (z-score)	[10]	-0.306
same	glycan array binding signal (z-score)	[11]	0.687
same	glycan array binding signal (z-score)	[12]	1.06
same	glycan array binding signal (z-score)	[13]	-0.197
same	glycan array binding signal (z-score)	[14]	-0.367
same	glycan array binding signal (z-score)	[15]	-0.205
same	glycan array binding signal (z-score)	[16]	0.045
